Laboratory results: PubChem BioAssay AID493014 (National Center for Advancing Translational Sciences (NCATS), 2011)
Among all 340,000 compounds or so, about 170 (0.05%) were called active. This list was built around the results that the source calls inconclusive (neither active nor inactive); the mix of calls is not that of the screen. Calls follow the shape of the dose curve; as a rule, active = well fitted inhibition curve with a large enough effect in the signal ratio, with a control signal flat (not every such curve was filed as active); inconclusive = small, poorly fitted or top-dose-only effect, or effect the other way, or a change in a side signal; inactive = flat fitted curve, though single readings scatter; the % refers to the signal ratio. Potencies beside an inconclusive call are fits to weak or partial responses and may not hold up.
Potency is read from the fitted curve at half-maximal effect.

Assay: qHTS Assay to Find Inhibitors of Chronic Active B-Cell Receptor Signaling;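 as to activity change, negative = inhibition: plate controls were basal doxycycline-induced cells for no effect and cells given 10 µM MG132 for full effect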
Conditions: ABC-DLBCL IkBa-CBG/CBR reporter, luminescence ratio (green luciferase fused to IkBa over red control in TMD8 lymphoma cells), 4 h; activity change, negative = inhibition: at 46.1 µM (top of the series)
How it was run: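 Compounds up to 46 uM were incubated four hours with TMD8 cells whose green CBG68 luciferase is fused to IkappaBalpha; red CBR luminescence normalised the signal, and concentration-effect curves were fitted to fusion, red and ratio data.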
In the case of `CCC1(CC)C(=O)NC(=Nc2cccc(C(F)(F)F)c2)NC1=O`, the activity change, negative = inhibition was “inactive”.
With `Nc1ccccc1-[n+]1c(-c2ccccc2)cc(-c2ccccc2)cc1-c1ccccc1` the activity change, negative = inhibition was “inactive”.
For `O=C(Cc1ccc(Cl)c(Cl)c1)NCC1(N2CCOCC2)CCCCC1`, the activity change, negative = inhibition was “inactive”.
For `Cc1ccccc1N1C(=O)NC(=O)/C(=C\c2cnn(-c3ccccc3)c2)C1=O`, the Potency was inconclusive: 1.64 µM [rising, partial curve, poor fit].
For `Cc1ccc(N2C(=O)NC(=O)/C(=C/c3ccc(-c4ccc(C(=O)O)c(Cl)c4)o3)C2=O)cc1`, the activity change, negative = inhibition was “inactive”.
In the case of `COc1ccc(CC(C)NC2CCCCCC2)cc1` (stereo unspecified), the activity change, negative = inhibition was inconclusive: 3.65%.
In the case of `Cc1cc(C)cc(N2C(=O)NC(=O)/C(=C\c3cccn3-c3ccccc3)C2=O)c1`, the activity change, negative = inhibition was inconclusive: 0.428%.
With `O=C(C[N+]12CCC(CC1)C(O)C2)c1ccc(Br)cc1` (stereo unspecified) the activity change, negative = inhibition was inconclusive: 2.4%.
For `Cc1ccc2c(c1)=C(c1ccccc1)N(O)CC(=O)N=2`, the activity change, negative = inhibition was inconclusive: 0.857%.
For `O=C(N/N=C/c1c(O)n(Cc2ccco2)c(=O)[nH]c1=O)c1ccccc1`, the Potency was inconclusive: 11.2 µM [falling, partial curve].
In the case of `CCOP(=O)(OCC)C(NC(=O)c1cccc([N+](=O)[O-])c1)C(Cl)(Cl)Cl` (stereo unspecified), the activity change, negative = inhibition was inconclusive: 0.141%.
For `COc1ccc(NC(=O)N2CCC3(CC2)OCCO3)cc1`, the activity change, negative = inhibition was inconclusive: 1.41%.
In the case of `Cc1ccc(CN2C(=O)NC(=O)C3(Cc4c(nc5ccccn5c4=O)N4CCCCCC43)C2=O)cc1` (stereo unspecified), the activity change, negative = inhibition was “inactive”.
For `CCC1CCCCN1CC(=O)c1ccc(OC(F)F)cc1` (stereo unspecified), the activity change, negative = inhibition was inconclusive: -10.6%.
In the case of `O=C(COc1ccc2ccccc2c1)N1CCN(CC2CC3C=CC2C3)CC1` (stereo unspecified), the activity change, negative = inhibition was “inactive”.
With `CCC(=NCCOc1ccc(Cl)cc1)c1c(O)n(C)c(=O)n(C)c1=O` the activity change, negative = inhibition was inconclusive: -8.69%.
In the case of `CCS(=O)(=O)NCc1nnc2n1-c1ccc(Cl)cc1C(c1ccccc1)=NC2`, the activity change, negative = inhibition was “inactive”.
In the case of `COc1ccc2c(c1)c(C(=O)CN1CCC3(CC1)OCCO3)c(C)n2Cc1ccccc1`, the activity change, negative = inhibition was inconclusive: -0.556%.
For `CCCCOc1ccc(CN2CCN(CCO)CC2)cc1`, the activity change, negative = inhibition was inconclusive: 20.1%.
In the case of `Cc1ccc(C(=O)N2CCCC(CCC(=O)N3CCN(c4ccccn4)CC3)C2)s1` (stereo unspecified), the activity change, negative = inhibition was inconclusive: 7%.
With `CCOC(=O)C1=C(C)OC(N)=C(C#N)C12C(=O)N(C)c1ccccc12` (stereo unspecified) the activity change, negative = inhibition was “inactive”.
For `OC[C@H]1O[C@@H](n2cnc3cc(Cl)c(Cl)cc32)[C@H](O)[C@@H]1O`, the Potency was inconclusive: 29.1 µM [rising, single point].
With `COc1ccc2cc1Oc1ccc(cc1)C[C@H]1c3cc(c(OC)cc3CCN1C)Oc1c(OC)c(OC)cc3c1[C@@H](C2)N(C)CC3` the activity change, negative = inhibition was “inactive”.
In the case of `CCCCn1c(O)c(C=NCCCn2ccnc2)c(=O)[nH]c1=O`, the activity change, negative = inhibition was “inactive”.
In the case of `O=c1c(/C=N/N2CCOCC2)c(O)n(-c2ccccc2)c(=S)n1-c1ccccc1`, the activity change, negative = inhibition was inconclusive: -19.7%.
With `COC(=O)C1CCN(c2nc3ccccc3nc2C(C#N)C(=O)OCC(C)C)CC1` (stereo unspecified) the activity change, negative = inhibition was inconclusive: 6.53%.
In the case of `Cc1cccc(N2C(=O)NC(=O)/C(=C/c3ccc([N+](=O)[O-])o3)C2=O)c1`, the activity change, negative = inhibition was “inactive”.
With `CC(C)OC1CCCC(O)C1CC(=O)O` (stereo unspecified) the activity change, negative = inhibition was inconclusive: 12.5%.
With `C=CCN1C(=O)C2(C(C(=O)OCC)=C(N)Oc3ccccc32)c2c1c1ccccc1oc2=O` (stereo unspecified) the Potency was inconclusive: 16.4 µM [falling, partial curve].
For `O=c1[nH]c(=O)n(-c2ccccc2F)c(O)c1/C=C1\C=Nc2ccccc21`, the Potency was inconclusive: 20 µM [falling, single point].
With `NCCNc1ccc([N+](=O)[O-])c2cccnc12` the Potency was inconclusive: 14.1 µM [falling, single point].
In the case of `Cn1cccc1/C=C1\C(=O)NC(=O)N(CCC2=CCCCC2)C1=O`, the activity change, negative = inhibition was inconclusive: -5.05%.
With `Cc1nc2ccccc2c(=O)n1-c1cccc(O)c1` the activity change, negative = inhibition was inconclusive: -11.5%.
For `O=C1NC(=O)C(=Cc2ccc(Sc3ccccc3)o2)C(=O)N1`, the Potency was inconclusive: 31.6 µM [rising, single point].
For `COC(=O)C(O)(c1ccc(NC(=O)Oc2ccccc2)cc1)C(F)(F)F` (stereo unspecified), the activity change, negative = inhibition was inconclusive: -3.72%.
In the case of `CCN(CC)C(=O)Cn1c(=O)oc2ccccc21`, the activity change, negative = inhibition was inconclusive: 5.03%.
With `CN1C(=O)C(=CN2CCN(C(=O)c3ccco3)CC2)C(=O)N(C)C1=S` the activity change, negative = inhibition was inconclusive: -5.16%.
For `CCCCC(=O)N/N=C/c1c(O)n(CC)c(=S)[nH]c1=O`, the activity change, negative = inhibition was “inactive”.
For `COc1ccc(C2=CC(c3ccc(OC)c(OC)c3)c3c(c4ccccc4oc3=O)O2)cc1OC` (stereo unspecified), the Potency was inconclusive: 10 µM [cytotoxic, partial curve].
In the case of `O=C1NC(=O)C(=Cc2ccc(-c3ccc(Cl)cc3)o2)C(=O)N1`, the Potency was inconclusive: 0.141 µM [falling, full curve, poor fit].
With `Cn1c(O)c(C(=NCCN2CCCCC2)c2ccccc2Cl)c(=O)n(C)c1=O` the activity change, negative = inhibition was inconclusive: 0.372%.
In the case of `O=C1NC(=O)C(=Cc2ccc(N3CCN(C(=O)c4ccccc4)CC3)c([N+](=O)[O-])c2)C(=O)N1`, the activity change, negative = inhibition was inconclusive: -6.31%.
In the case of `O=C(c1ccccc1)c1ccccc1N=Cc1c(O)[nH]c(=O)[nH]c1=O`, the activity change, negative = inhibition was inconclusive: -2.02%.
With `O=C(c1ccc(F)cc1Cl)N1CCC2(CC1)OCCO2` the activity change, negative = inhibition was inconclusive: 10.6%.
With `COc1cc(Cn2c(N)c(C(=O)NCc3ccco3)c3nc4ccccc4nc32)cc(OC)c1OC` the Potency was inconclusive: 3.66 µM [falling, full curve].
With `CC(Cc1ccccc1Sc1ccccc1O)N(C)C` (stereo unspecified) the activity change, negative = inhibition was “inactive”.
In the case of `COC(=O)C1=C(c2ccc(-c3ccccc3)c(F)c2)C[C@@H]2CC[C@H]1N2C(=O)NCCOc1ccccc1`, the activity change, negative = inhibition was inconclusive: -6.12%.
In the case of `CN(C)C(=O)Nc1cccc(OC(=O)N(C)C)c1`, the activity change, negative = inhibition was inconclusive: -2.72%.
For `Cc1ccc2c(c1)C1CN(C)CCC1N2C(=O)c1cccs1` (stereo unspecified), the activity change, negative = inhibition was inconclusive: 1.45%.
With `CC/C(=N\N1CCCCC1)c1c(O)[nH]c(=O)[nH]c1=O` the Potency was inconclusive: 35.5 µM [falling, single point].
With `COC(=O)Nc1ccc(N=C(N)N[N+](=O)[O-])cc1` the activity change, negative = inhibition was “inactive”.
For `O=C(NCc1ccc(C(=O)N2CCC3(CC2)OCCO3)cc1)c1cccc(Br)c1`, the activity change, negative = inhibition was “inactive”.
For `COC(=O)NC(=C(Cl)Cl)P(=O)(c1ccccc1)c1ccccc1`, the activity change, negative = inhibition was inconclusive: -2.16%.
For `COC(=O)C1=C(c2ccc(F)cc2F)C[C@@H]2CC[C@H]1N2C(=O)NCCOc1ccc(OC)cc1`, the activity change, negative = inhibition was inconclusive: 0.411%.
With `Clc1ccc(CNCCc2ccc3c(c2)OCO3)cc1` the activity change, negative = inhibition was “inactive”.
With `CC(C)(C)OC(=O)c1c(N)n(Cc2ccco2)c2nc3ccccc3nc12` the Potency was inconclusive: 2.91 µM [rising, full curve, poor fit].
With `O=C1NC(=O)C(=Cc2ccc(-c3ccccc3[N+](=O)[O-])o2)C(=O)N1` the activity change, negative = inhibition was “inactive”.
In the case of `c1ccc2nc(OCCN3CC3)ccc2c1`, the activity change, negative = inhibition was inconclusive: 7.49%.
For `O=P(OCC(F)(F)C(F)F)(N1CCCCC1)N1CCCCC1`, the activity change, negative = inhibition was inconclusive: 10%.
In the case of `COC(=O)C1=C(c2ccc(F)cc2F)C[C@@H]2CC[C@H]1N2C(=O)NCCOc1ccccc1`, the activity change, negative = inhibition was “inactive”.
With `CCCCn1c(=O)c(C(=O)Nc2nc3ccccc3[nH]2)c(O)c2ccccc21` the Potency was inconclusive: 0.731 µM [falling, full curve].
For `Cc1cc(OC(=O)N(C)C)nc(-c2ccc(C)c(Cl)c2)n1`, the activity change, negative = inhibition was “inactive”.
With `Cc1cccc(Cn2cccc(C(=O)Nc3cc(C)on3)c2=O)c1` the Potency was inconclusive: 1.12 µM [rising, full curve, poor fit].
With `COc1ccc(C(=O)N2CCCC2=O)cc1` the activity change, negative = inhibition was inconclusive: 6.99%.
For `COc1cc(CC2(CCc3ccncc3)C(=O)NC(=O)NC2=O)cc(OC)c1OC`, the activity change, negative = inhibition was inconclusive: 11.5%.
In the case of `COc1nc(NC(C)C)nc(NC(C)C)n1`, the activity change, negative = inhibition was inconclusive: 1.99%.
In the case of `COc1ccc(CCNCc2ccsc2)cc1OC`, the activity change, negative = inhibition was inconclusive: -6.07%.
For `CCOC(=O)c1sc(NC(=O)CN2CCN(c3ccc(OC)cc3)CC2)nc1C`, the activity change, negative = inhibition was inconclusive: -0.568%.
With `CC(C)CCNC(=O)Cn1c(=O)oc2cc(S(=O)(=O)N3CCc4ccccc43)ccc21` the activity change, negative = inhibition was inconclusive: -7.59%.
With `Cc1ccc(C)c(NC(=O)c2cc(-c3cc(C)ccc3O)n[nH]2)c1` the Potency was inconclusive: 17.8 µM [falling, partial curve].
In the case of `CN(C)C1(CNC(=O)Nc2ccc(Cl)c(Cl)c2)CCCCC1`, the activity change, negative = inhibition was inconclusive: 1.39%.
In the case of `CC(C)CCNC(=O)c1c(N)n(CC2CCCO2)c2nc3ccccc3nc12` (stereo unspecified), the Potency was inconclusive: 23.1 µM [rising, single point].
In the case of `C/C(=N\N1CCCCCC1)c1c(O)n(-c2ccccc2C)c(=O)[nH]c1=O`, the activity change, negative = inhibition was “inactive”.
With `CCS(=O)(=O)Nc1cccc(C(=C2CCCCC2)c2cnc[nH]2)c1` the activity change, negative = inhibition was “inactive”.
In the case of `COP(=O)(/C=C(\Cl)c1ccccc1)/C=C(\Cl)c1ccccc1`, the activity change, negative = inhibition was inconclusive: 4.12%.
For `COc1cc(/C=C2/SC(=S)N(Cc3ccccc3)C2=O)ccc1OCC(=O)O`, the activity change, negative = inhibition was inconclusive: -5.12%.
In the case of `CC[C@H](OC(C)=O)C(C[C@H](C)N(C)C)(c1ccccc1)c1ccccc1`, the activity change, negative = inhibition was inconclusive: -2.18%.
With `COC(=O)C1=C(c2ccc(OCc3ccccc3)cc2)C[C@@H]2CC[C@H]1N2C(=O)NCc1ccc(OC)c(OC)c1` the activity change, negative = inhibition was inconclusive: 0.806%.
In the case of `Cc1nc2cc(C(=O)N3CCC4(CC3)OCCO4)ccc2n1-c1cccc(F)c1`, the activity change, negative = inhibition was inconclusive: 4.97%.
For `O=c1c2ccccc2[nH]c(=S)n1-c1ccc(Br)cc1`, the Potency was inconclusive: 11.2 µM [falling, partial curve].
With `CC[C@@H](C(N)=O)N1CCCC1=O` the Potency was inconclusive: 11.2 µM [falling, partial curve, poor fit].
